# According to PubChem BioAssay AID652070 (Broad Institute, 2013):
# Listed are the inconclusive results; actives and inactives stand elsewhere. How the calls were made is not given here.
# Test: apoptosis induction over several timepoints – cell-based, HT29 HRAS, caspase 3/7 luminescence, multiple timepoints, dry powder, mechanism study for HRAS target identification (AID 652070)
# Conditions: HT29 HRAS cells; at 35 µM (top of the series)
smiles,measurement,value
CC(C)(C)OC(=O)NCCOCCOCCOc1ccc(N(C(=O)CCl)C(C(=O)NCCc2ccccc2)c2cccs2)cc1Cl (stereo unspecified),caspase 3/7 activation,inconclusive: 181%
